From patent publication US20100092460A1
These are yes or no findings as the source states them, for the method shown. Some results given as binding are weak or reduced against the parent protein; the word gives no strength.

Amino acid sequences for entries named in this document (tags omitted). Residues count along the entry.
UniProt P69332: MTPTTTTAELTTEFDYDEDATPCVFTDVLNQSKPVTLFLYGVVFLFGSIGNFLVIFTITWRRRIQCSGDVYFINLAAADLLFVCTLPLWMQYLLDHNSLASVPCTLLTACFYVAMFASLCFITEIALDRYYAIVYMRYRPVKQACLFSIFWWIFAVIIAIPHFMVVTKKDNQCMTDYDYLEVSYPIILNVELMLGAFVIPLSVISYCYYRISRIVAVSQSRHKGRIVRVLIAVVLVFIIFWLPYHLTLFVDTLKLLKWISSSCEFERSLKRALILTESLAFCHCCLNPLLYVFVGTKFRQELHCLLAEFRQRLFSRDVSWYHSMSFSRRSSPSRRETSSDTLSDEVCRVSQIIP
UniProt P10147, residues 27-92: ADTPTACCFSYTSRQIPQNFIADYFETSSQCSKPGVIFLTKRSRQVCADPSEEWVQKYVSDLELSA
UniProt P13500, residues 24-99: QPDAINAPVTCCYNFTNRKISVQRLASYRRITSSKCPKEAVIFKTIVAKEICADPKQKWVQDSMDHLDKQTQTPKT

Columns and labels:
hCCR1 (human) [1] = biological target: T1, hCCR1 (human) (UniProt P32246); test: competition of unlabeled CCL3 with 125I-CCL5 on HEK293T cells with hCCR1
T1 sequence (looked up): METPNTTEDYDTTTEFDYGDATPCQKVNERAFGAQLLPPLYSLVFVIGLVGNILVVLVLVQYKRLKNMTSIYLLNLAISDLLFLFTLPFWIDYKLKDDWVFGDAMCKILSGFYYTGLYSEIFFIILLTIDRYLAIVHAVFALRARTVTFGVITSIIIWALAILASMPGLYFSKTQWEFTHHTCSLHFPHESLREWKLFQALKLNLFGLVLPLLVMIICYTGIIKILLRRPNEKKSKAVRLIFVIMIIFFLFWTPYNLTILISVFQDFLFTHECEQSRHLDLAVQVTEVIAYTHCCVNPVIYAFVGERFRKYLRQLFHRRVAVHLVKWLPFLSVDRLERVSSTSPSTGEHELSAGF

hCCR1 (human) [2] = biological target: T1, hCCR1 (human); test: unlabelled CCL3 (100 nM) used to displace 125I-CCL5 from CCR1 on HEK293T cells
HCMV-US28 (HCMV) = HCMV-US28 (HCMV) (UniProt P69332); test: competition of unlabeled CCL2 with 125I-CCL2 on HEK293T cells with HCMV-US28

binding (hCCR1 (human) [1])	binding (hCCR1 (human) [2])	Substance	binding (HCMV-US28 (HCMV))
binds	binds	recombinant human CCL3/MIP1 alpha (from UniProt P10147 27-92) (ligand)	
		recombinant human CCL2/MCP1 (from UniProt P13500 24-99) (ligand)	binds
